This passage reports binding results from PMC8744257.

Results are given in words; binding and its absence hold for the method and conditions named. In cells and extracts the contact can be indirect. Some binding calls cover weakened binding; strength is not graded here. Where a sequence is shown, tags or fusion partners need not be part of it.

Test [1] deals with T1, BioID2-tagged wildtype human CLUH (BioID2-3xHA-CLUH) (human) (UniProt O75153).
T1 sequence: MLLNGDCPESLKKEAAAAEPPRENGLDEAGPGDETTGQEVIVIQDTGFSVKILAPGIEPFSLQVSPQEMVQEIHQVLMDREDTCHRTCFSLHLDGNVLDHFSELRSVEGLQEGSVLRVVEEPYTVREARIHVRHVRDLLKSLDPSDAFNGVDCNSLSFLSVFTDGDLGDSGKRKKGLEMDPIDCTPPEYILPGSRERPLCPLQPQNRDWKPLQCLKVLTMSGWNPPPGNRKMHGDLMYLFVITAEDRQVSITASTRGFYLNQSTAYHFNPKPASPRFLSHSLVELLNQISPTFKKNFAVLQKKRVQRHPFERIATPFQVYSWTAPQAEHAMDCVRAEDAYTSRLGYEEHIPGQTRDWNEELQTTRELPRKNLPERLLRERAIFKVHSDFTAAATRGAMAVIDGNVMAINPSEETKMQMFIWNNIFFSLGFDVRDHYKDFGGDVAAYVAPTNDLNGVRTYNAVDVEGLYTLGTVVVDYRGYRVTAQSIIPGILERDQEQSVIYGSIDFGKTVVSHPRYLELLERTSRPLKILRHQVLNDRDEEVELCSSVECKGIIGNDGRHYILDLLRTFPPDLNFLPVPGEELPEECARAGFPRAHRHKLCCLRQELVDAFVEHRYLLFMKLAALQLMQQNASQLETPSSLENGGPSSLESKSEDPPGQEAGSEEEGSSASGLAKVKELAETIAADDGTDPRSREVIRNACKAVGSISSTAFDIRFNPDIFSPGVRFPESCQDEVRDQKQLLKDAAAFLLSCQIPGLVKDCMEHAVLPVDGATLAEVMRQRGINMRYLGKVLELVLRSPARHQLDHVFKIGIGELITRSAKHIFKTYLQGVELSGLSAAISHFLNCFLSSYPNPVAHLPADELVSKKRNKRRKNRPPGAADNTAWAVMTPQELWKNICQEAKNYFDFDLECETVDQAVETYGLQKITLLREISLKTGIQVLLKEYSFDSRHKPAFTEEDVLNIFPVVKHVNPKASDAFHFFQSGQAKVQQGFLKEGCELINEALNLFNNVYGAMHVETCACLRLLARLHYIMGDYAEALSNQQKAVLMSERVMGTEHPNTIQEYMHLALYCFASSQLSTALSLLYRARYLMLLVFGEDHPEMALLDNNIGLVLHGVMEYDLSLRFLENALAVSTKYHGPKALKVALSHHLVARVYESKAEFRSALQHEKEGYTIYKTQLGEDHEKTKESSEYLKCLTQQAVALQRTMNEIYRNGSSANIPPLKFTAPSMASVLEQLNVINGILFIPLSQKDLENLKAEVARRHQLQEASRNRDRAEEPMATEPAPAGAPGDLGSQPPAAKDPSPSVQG
In words: co-IP; anti-HA magnetic beads on total extracts of HCT116 stably expressing BioID2-3xHA-tagged CLUH, CLUH∆TPR or GFP; endogenous CLUH and SPAG5 detected by western blot; also after SPAG5 knock-down (Fig. S4).

The target of test [2] is T2, ectopically expressed 3xHA-CLUH protein (co-expressed with GFP-tagged proteins) (not stated (human or mouse cDNA cloned)) (UniProt Q5SW19).
T2 sequence: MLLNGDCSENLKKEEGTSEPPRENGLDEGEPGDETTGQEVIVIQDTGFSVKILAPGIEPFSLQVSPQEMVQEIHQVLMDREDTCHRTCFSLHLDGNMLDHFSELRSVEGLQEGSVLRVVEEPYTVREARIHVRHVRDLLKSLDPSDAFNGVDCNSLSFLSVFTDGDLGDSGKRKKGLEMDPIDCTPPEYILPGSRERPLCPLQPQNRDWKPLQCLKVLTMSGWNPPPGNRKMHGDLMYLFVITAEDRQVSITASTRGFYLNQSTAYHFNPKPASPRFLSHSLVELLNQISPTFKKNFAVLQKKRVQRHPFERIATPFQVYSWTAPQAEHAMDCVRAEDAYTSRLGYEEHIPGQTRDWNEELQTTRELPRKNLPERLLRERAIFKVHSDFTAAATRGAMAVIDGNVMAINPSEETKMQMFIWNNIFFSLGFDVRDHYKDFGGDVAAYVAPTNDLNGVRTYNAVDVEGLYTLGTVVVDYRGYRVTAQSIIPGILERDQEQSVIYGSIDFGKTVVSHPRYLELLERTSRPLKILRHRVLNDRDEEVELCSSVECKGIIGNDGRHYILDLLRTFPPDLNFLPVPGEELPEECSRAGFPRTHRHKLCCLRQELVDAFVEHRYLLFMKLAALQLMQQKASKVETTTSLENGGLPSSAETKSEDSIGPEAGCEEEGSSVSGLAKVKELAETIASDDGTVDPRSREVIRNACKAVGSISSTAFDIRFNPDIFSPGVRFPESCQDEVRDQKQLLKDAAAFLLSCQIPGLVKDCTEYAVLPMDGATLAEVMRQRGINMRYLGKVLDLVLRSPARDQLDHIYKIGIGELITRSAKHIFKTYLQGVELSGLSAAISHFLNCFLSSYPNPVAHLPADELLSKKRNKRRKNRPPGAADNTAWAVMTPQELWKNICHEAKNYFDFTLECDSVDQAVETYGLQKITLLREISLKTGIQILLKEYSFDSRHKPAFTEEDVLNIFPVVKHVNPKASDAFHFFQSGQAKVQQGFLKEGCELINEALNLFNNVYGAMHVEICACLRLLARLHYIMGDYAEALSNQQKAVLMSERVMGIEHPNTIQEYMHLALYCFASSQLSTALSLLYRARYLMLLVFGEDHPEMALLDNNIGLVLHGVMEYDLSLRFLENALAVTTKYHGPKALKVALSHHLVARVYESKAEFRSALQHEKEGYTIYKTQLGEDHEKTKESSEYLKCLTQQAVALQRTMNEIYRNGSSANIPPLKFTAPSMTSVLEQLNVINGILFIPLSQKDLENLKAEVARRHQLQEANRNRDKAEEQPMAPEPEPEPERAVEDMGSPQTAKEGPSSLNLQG
The test can be described thus: co-IP; 3xHA-CLUH as bait in HCT116 expressing GFP-SPAG5 or GFP-KNSTRN; extracts with or without RNase treatment before the pull-down (Figs. S2A-C).

B1: SPAG5 (endogenous, HCT116) (protein, UniProt Q96R06 1-1193)
chain: MWRVKKLSLSLSPSPQTGKPSMRTPLRELTLQPGALTNSGKRSPACSSLTPSLCKLGLQEGSNNSSPVDFVNNKRTDLSSEHFSHSSKWLETCQHESDEQPLDPIPQISSTPKTSEEAVDPLGNYMVKTIVLVPSPLGQQQDMIFEARLDTMAETNSISLNGPLRTDDLVREEVAPCMGDRFSEVAAVSEKPIFQESPSHLLEESPPNPCSEQLHCSKESLSSRTEAVREDLVPSESNAFLPSSVLWLSPSTALAADFRVNHVDPEEEIVEHGAMEEREMRFPTHPKESETEDQALVSSVEDILSTCLTPNLVEMESQEAPGPAVEDVGRILGSDTESWMSPLAWLEKGVNTSVMLENLRQSLSLPSMLRDAAIGTTPFSTCSVGTWFTPSAPQEKSTNTSQTGLVGTKHSTSETEQLLCGRPPDLTALSRHDLEDNLLSSLVILEVLSRQLRDWKSQLAVPHPETQDSSTQTDTSHSGITNKLQHLKESHEMGQALQQARNVMQSWVLISKELISLLHLSLLHLEEDKTTVSQESRRAETLVCCCFDLLKKLRAKLQSLKAEREEARHREEMALRGKDAAEIVLEAFCAHASQRISQLEQDLASMREFRGLLKDAQTQLVGLHAKQEELVQQTVSLTSTLQQDWRSMQLDYTTWTALLSRSRQLTEKLTVKSQQALQERDVAIEEKQEVSRVLEQVSAQLEECKGQTEQLELENSRLATDLRAQLQILANMDSQLKELQSQHTHCAQDLAMKDELLCQLTQSNEEQAAQWQKEEMALKHMQAELQQQQAVLAKEVRDLKETLEFADQENQVAHLELGQVECQLKTTLEVLRERSLQCENLKDTVENLTAKLASTIADNQEQDLEKTRQYSQKLGLLTEQLQSLTLFLQTKLKEKTEQETLLLSTACPPTQEHPLPNDRTFLGSILTAVADEEPESTPVPLLGSDKSAFTRVASMVSLQPAETPGMEESLAEMSIMTTELQSLCSLLQESKEEAIRTLQRKICELQARLQAQEEQHQEVQKAKEADIEKLNQALCLRYKNEKELQEVIQQQNEKILEQIDKSGELISLREEVTHLTRSLRRAETETKVLQEALAGQLDSNCQPMATNWIQEKVWLSQEVDKLRVMFLEMKNEKEKLMIKFQSHRNILEENLRRSDKELEKLDDIVQHIYKTLLSIPEVVRGCKELQGLLEFLS
With B1, the binding entry in test [1] was “binds”.

B2: GFP-SPAG5 (protein, UniProt Q96R06 1-1193)
chain: B1 chain
As for B2, the binding result in test [2] is “binds”.

B3: GFP-KNSTRN (protein, UniProt Q9Y448 1-316)
chain: MAAPEAPPLDRVFRTTWLSTECDSHPLPPSYRKFLFETQAADLAGGTTVAAGNLLNESEKDCGQDRRAPGVQPCRLVTMTSVVKTVYSLQPPSALSGGQPADTQTRATSKSLLPVRSKEVDVSKQLHSGGPENDVTKITKLRRENGQMKATDTATRRNVRKGYKPLSKQKSEEELKDKNQLLEAVNKQLHQKLTETQGELKDLTQKVELLEKFRDNCLAILESKGLDPALGSETLASRQESTTDHMDSMLLLETLQEELKLFNETAKKQMEELQALKVKLEMKEERVRFLEQQTLCNNQVNDLTTALKEMEQLLEM
On to B3, for which, in test [2], the binding result is listed as “binds”.
